Measured values published in patent US20110008350A1 (published 2011).
No constants are given. Whether binding was seen depends on the method and setting. Binding seen in cells or lysates may run through a third protein. Some binding calls cover weakened binding; strength is not graded here. Where a sequence is shown, tags or fusion partners need not be part of it.

Target: T1, CD81 in HEK293 cells (human (HEK293 cells)) (UniProt P60033)
T1 sequence: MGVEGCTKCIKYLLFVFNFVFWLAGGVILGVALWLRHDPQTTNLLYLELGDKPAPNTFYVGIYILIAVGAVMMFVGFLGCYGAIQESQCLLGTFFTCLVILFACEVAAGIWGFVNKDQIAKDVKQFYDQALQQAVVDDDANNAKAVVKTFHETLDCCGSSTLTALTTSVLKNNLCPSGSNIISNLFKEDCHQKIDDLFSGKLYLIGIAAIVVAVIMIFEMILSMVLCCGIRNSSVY
Assay: co-immunoprecipitation with anti-FPRP (1F11), 1% CHAPSO-solubilized HEK293 membranes, Western blot

- binding: binds
B1: FPRP (PTGFRN, prostaglandin F2 receptor negative regulator) in HEK293 cells (protein)
chain: VPTATLVRVVGTELVIPCNVSDYDGPSEQNFDWSFSSLGSSFVELASTWEVGFPAQLYQERLQRGEILLRRTANDAVELHIKNVQPSDQGHYKCSTPSTDATVQGNYEDTVQVKVLADSLHVGPSARPPPSLSLREGEPFELRCTAASASPLHTHLALLWEVHRGPARRSVLALTHEGRFHPGLGYEQRYHSGDVRLDTVGSDAYRLSVSRALSADQGSYRCIVSEWIAEQGNWQEIQEKAVEVATVVIQPSVLRAAVPKNVSVAEGKELDLTCNITTDRADDVRPEVTWSFSRMPDSTLPGSRVLARLDRDSLVHSSPHVALSHVDARSYHLLVRDVSKENSGYYYCHVSLWAPGHNRSWHKVAEAVSSPAGVGVTWLEPDYQVYLNASKVPGFADDPTELACRVVDTKSGEANVRFTVSWYYRMNRRSDNVVTSELLAVMDGDWTLKYGERSKQRAQDGDFIFSKEHTDTFNFRIQRTTEEDRGNYYCVVSAWTKQRNNSWVKSKDVFSKPVNIFWALEDSVLVVKARQPKPFFAAGNTFEMTCKVSSKNIKSPRYSVLIMAEKPVGDLSSPNETKYIISLDQDSVVKLENWTDASRVDGVVLEKVQEDEFRYRMYQTQVSDAGLYRCMVTAWSPVRGSLWREAATSLSNPIEIDFQTSGPIFNASVHSDTPSVIRGDLIKLFCIITVEGAALDPDDMAFDVSWFAVHSFGLDKAPVLLSSLDRKGIVTTSRRDWKSDLSLERVSVLEFLLQVHGSEDQDFGNYYCSVTPWVKSPTGSWQKEAEIHSKPVFITVKMDVLNAFKYPLLIGVGLSTVIGLLSCLIGYCSSHWCCKKEVQETRRERRRLMSMEMD
